Experimental data: US8080377B2, “Method for confirming the exposure on chrysene” (Korea Institute of Science and Technology, priority 2008, dated 2011)
This continues a long series; more values of the same kind are listed elsewhere.

System: HepG2 cells
Assay: 44 k whole human genome oligo microarray gene expression, cells treated with chrysene at IC20 for 48 hours (Cy5) vs untreated control (Cy3)
Type: cell-based
Method: HepG2 cells were distributed on a 100 mm dish at the concentration of 6×10^6 cell/ml, to which chrysene was treated for 48 hours at the concentration that was determined in Example <1-2>. Total RNA was extracted from the cells using trizol reagent (Invitrogen life technologies, USA) according to the manufacturer's instruction and the extracted RNA was purified by using RNeasy mini kit (Qiagen, USA). The genomic DNA was eliminated during the purification of RNA using RNase-free DNase set (Qiagen, USA). The total RNA was quantified by spectrophotometer and purity was measured by Agilent 2100 Bioanalyzer (Agilent Technologies, USA) and agarose gel-electrophoration.
For oligo-microarray analysis, cDNA was synthesized using the total RNA extracted from the experimental group treated with chrysene obtained in Example <2-1>. 30 μg of the total RNA and 2 μg (1 μg/μl) of oligo (dT) primer were mixed, followed by reaction for 10 minutes at 65° C. Then, the reaction mixture was put in ice, followed by annealing. Reagents were mixed as shown in Table 1 for reverse transcription of the RNA.
The total RNA extracted from the control HepG2 cell line was labeled with Cy3-dUTP (green), while the RNA extracted from the experimental HepG2 cell line treated with chrysene was labeled with Cy5-dUTP (red). At this time, the two samples were mixed and purified by Microcon YM-30 column (Millipore, USA).
Hybridization and washing were performed according to the instruction of GeneoCheck Co., Ltd. Hybridization was performed in a 62° C. oven for 12 hours. At this time, 44 k whole human genome oligo microarray (Agilent, USA) was used as a DNA microarray chip. After washing (with 2×SSC/0.1% SDS for 2 minutes, with 1×SSC for 3 minutes, with 0.2×SSC for 2 minutes), the slide was centrifuged at 800 rpm for 3 minutes and dried.
Scanning of the hybridized images on the slide was performed by using Genepix 4000B (Axon Instruments, USA). Fluorescence images of the chip washed to eliminate non-binding genes were obtained by laser fluorescence scanner. At this time, green fluorescent images indicated the activity of the gene expressed in the control, whereas red fluorescent images indicated the activity of the gene expressed specifically in the experimental group. […] The scanned images were analyzed by GenePix 4.1 software (Axon Instruments, USA) to calculate the gene expression rate. Based on the obtained data, marker genes for chrysene were selected (see FIG. 2).

Q: Which “Ratio of intermediate value” (04-Sep, Septin 4 (NM_004574)) does the source give for c1ccc2c(c1)ccc1c3ccccc3ccc21 [chrysene] here?
A: 4.421

Q: What about the “Ratio of intermediate value” (6PGL (BC017706)) of the same compound?
A: 2.621

Q: And the “Ratio of intermediate value” (ABCB6 (BC043423))?
A: 3.039

Q: And the “Ratio of intermediate value” (ACBD3 (AB043587))?
A: 2.387

Q: And the “Ratio of intermediate value” (ADAM19 (Y13786))?
A: 3.419

Q: What about the “Ratio of intermediate value” (ADH1B (AF153821)) of the same compound?
A: 2.421

Q: And the “Ratio of intermediate value” (AKR1B10 (AF524864))?
A: 5.17

Q: And the “Ratio of intermediate value” (AKR1C3 (BQ939577))?
A: 2.683

Q: What about the “Ratio of intermediate value” (AKR1C4 (BC020744)) of the same compound?
A: 3.074

Q: What about the “Ratio of intermediate value” (ANXA4 (BX641114)) of the same compound?
A: 2.143

Q: And the “Ratio of intermediate value” (APAF1 (NM_181861))?
A: 2.324

Q: What about the “Ratio of intermediate value” (APLP1 (NM_001024807)) of the same compound?
A: 14.6

Q: What about the “Ratio of intermediate value” (APOBEC3B (AK024854)) of the same compound?
A: 3.958

Q: What about the “Ratio of intermediate value” (APOBEC3F (NM_145298)) of the same compound?
A: 4.283

Q: What about the “Ratio of intermediate value” (APOL1 (NM_145343)) of the same compound?
A: 2.065

Q: What about the “Ratio of intermediate value” (AQP3 (AK095363)) of the same compound?
A: 8.623

Q: And the “Ratio of intermediate value” (ATXN3 (BC095402))?
A: 2.202

Q: What about the “Ratio of intermediate value” (BIRC3 (NM_001165)) of the same compound?
A: 6.105

Q: What about the “Ratio of intermediate value” (BMP1 (AB209590)) of the same compound?
A: 2.018

Q: And the “Ratio of intermediate value” (BPGM (NM_199186))?
A: 2.002

Q: What about the “Ratio of intermediate value” (BTG2 (NM_006763)) of the same compound?
A: 8.033

Q: And the “Ratio of intermediate value” (C9orf150 (NM_203403))?
A: 2.2

Q: And the “Ratio of intermediate value” (CABYR (NM_012189))?
A: 15.75

Q: And the “Ratio of intermediate value” (CAPN2 (AK124751))?
A: 4.877

Q: And the “Ratio of intermediate value” (CARD6 (AF356193))?
A: 2.315

Q: And the “Ratio of intermediate value” (CASP10 (BC042844))?
A: 2.071

Q: And the “Ratio of intermediate value” (CCIN (AF333334))?
A: 2.908

Q: What about the “Ratio of intermediate value” (CCNK (AB209373)) of the same compound?
A: 2.274

Q: What about the “Ratio of intermediate value” (CD3E (NM_000733)) of the same compound?
A: 2.069

Q: What about the “Ratio of intermediate value” (CD14 (CR614015)) of the same compound?
A: 2.62

Q: And the “Ratio of intermediate value” (CDC42 (NM_044472))?
A: 2.087

Q: What about the “Ratio of intermediate value” (CDKN1A (NM_078467)) of the same compound?
A: 21.05

Q: What about the “Ratio of intermediate value” (CEL (X54457)) of the same compound?
A: 11.01

Q: And the “Ratio of intermediate value” (CGB5 (BX386171))?
A: 2.117

Q: What about the “Ratio of intermediate value” (CHRM5 (NM_012125)) of the same compound?
A: 2.113

Q: What about the “Ratio of intermediate value” (CNGB1 (NM_001297)) of the same compound?
A: 5.653

Q: What about the “Ratio of intermediate value” (COL7A1 (L02870)) of the same compound?
A: 4.294

Q: And the “Ratio of intermediate value” (COL9A2 (BC041479))?
A: 3.574

Q: And the “Ratio of intermediate value” (CPA1 (AK124421))?
A: 3.111

Q: And the “Ratio of intermediate value” (CRA (BC094756))?
A: 2.621

Q: And the “Ratio of intermediate value” (CSPG4 (X96753))?
A: 3.343

Q: What about the “Ratio of intermediate value” (CSRP2 (AB209321)) of the same compound?
A: 2.079

Q: What about the “Ratio of intermediate value” (CTHRC1 (BC021025)) of the same compound?
A: 3.023

Q: What about the “Ratio of intermediate value” (CTSB (NM_147780)) of the same compound?
A: 6.625

Q: And the “Ratio of intermediate value” (CYGB (CR615530))?
A: 5.51

Q: And the “Ratio of intermediate value” (CYP1A1 (NM_000499))?
A: 88.34

Q: What about the “Ratio of intermediate value” (CYP2S1 (NM_030622)) of the same compound?
A: 2.769

Q: What about the “Ratio of intermediate value” (CYP2U1 (BC012027)) of the same compound?
A: 2.369

Q: What about the “Ratio of intermediate value” (CYP4F3 (AB002454)) of the same compound?
A: 2.282

Q: What about the “Ratio of intermediate value” (CYP4F11 (BC092420)) of the same compound?
A: 3.048

Q: What about the “Ratio of intermediate value” (CYP21A2 (CD013987)) of the same compound?
A: 3.5

Q: And the “Ratio of intermediate value” (CYP26A1 (AK027560))?
A: 4.292

Q: What about the “Ratio of intermediate value” (CYR61 (Y11307)) of the same compound?
A: 8.871

Q: What about the “Ratio of intermediate value” (DAO (BC029057)) of the same compound?
A: 3.658

Q: What about the “Ratio of intermediate value” (DAZAP1 (AK124583)) of the same compound?
A: 2.093

Q: What about the “Ratio of intermediate value” (DCAMKL1 (AF052152)) of the same compound?
A: 2.947

Q: And the “Ratio of intermediate value” (DCTN6 (NM_006571))?
A: 2.033

Q: What about the “Ratio of intermediate value” (DDB2 (BC050455)) of the same compound?
A: 5.131

Q: And the “Ratio of intermediate value” (DGKA (NM_201444))?
A: 6.832

Q: What about the “Ratio of intermediate value” (DHRS3 (NM_004753)) of the same compound?
A: 2.953

Q: And the “Ratio of intermediate value” (DHRS6 (NM_020139))?
A: 2.017

Q: And the “Ratio of intermediate value” (EFNB1 (NM_004429))?
A: 2.29

Q: What about the “Ratio of intermediate value” (EGR2 (BC035625)) of the same compound?
A: 5.012

Q: What about the “Ratio of intermediate value” (EI24 (NM_004879)) of the same compound?
A: 3.84

Q: And the “Ratio of intermediate value” (EMP3 (BM556279))?
A: 2.029

Q: What about the “Ratio of intermediate value” (ENO2 (AK124656)) of the same compound?
A: 2.273

Q: And the “Ratio of intermediate value” (ERCC1 (NM_001983))?
A: 1.811

Q: And the “Ratio of intermediate value” (FADS3 (NM_021727))?
A: 4.914

Q: And the “Ratio of intermediate value” (FAS (AB209361))?
A: 9.283

Q: And the “Ratio of intermediate value” (FDXR (BC034763))?
A: 9.627

Q: What about the “Ratio of intermediate value” (FGFR1OP (NM_007045)) of the same compound?
A: 2.094

Q: And the “Ratio of intermediate value” (FLJ42654 (AB075871))?
A: 2.279

Q: What about the “Ratio of intermediate value” (FRK (NM_002031)) of the same compound?
A: 2.008

Q: And the “Ratio of intermediate value” (FXYD2 (BX641053))?
A: 14.84

Q: What about the “Ratio of intermediate value” (GABRE (NM_021990)) of the same compound?
A: 3.111

Q: What about the “Ratio of intermediate value” (GADD45A (CR612719)) of the same compound?
A: 2.785

Q: What about the “Ratio of intermediate value” (GADD45B (AK129595)) of the same compound?
A: 2.432

Q: And the “Ratio of intermediate value” (GALGT (NM_001478))?
A: 2.372

Q: What about the “Ratio of intermediate value” (GDF15 (NM_004864)) of the same compound?
A: 6.654

Q: And the “Ratio of intermediate value” (GLA (NM_000169))?
A: 2.641

Q: What about the “Ratio of intermediate value” (GM2A (NM_000405)) of the same compound?
A: 2.078

Q: And the “Ratio of intermediate value” (GPD1L (D42047))?
A: 2.17

Q: And the “Ratio of intermediate value” (HDAC2 (F02250))?
A: 2.559

Q: What about the “Ratio of intermediate value” (HIP1 (AY358103)) of the same compound?
A: 2.101

Q: What about the “Ratio of intermediate value” (HIST1H1C (NM_005319)) of the same compound?
A: 4.257

Q: What about the “Ratio of intermediate value” (HIST1H1D (NM_005320)) of the same compound?
A: 3.301

Q: What about the “Ratio of intermediate value” (HIST1H1E (BU603483)) of the same compound?
A: 4.639

Q: And the “Ratio of intermediate value” (HIST1H2AC (CR608156))?
A: 1.895

Q: And the “Ratio of intermediate value” (HIST1H2BD (BC042589))?
A: 2.361

Q: And the “Ratio of intermediate value” (HIST1H2BH (BX436525))?
A: 1.564

Q: And the “Ratio of intermediate value” (HIST1H2BI (BC101655))?
A: 1.863

Q: What about the “Ratio of intermediate value” (HIST1H2BO (BX647290)) of the same compound?
A: 1.512

Q: And the “Ratio of intermediate value” (HIST2H2AA (NM_003516))?
A: 3.052

Q: And the “Ratio of intermediate value” (HIST2H2BE (CB529694))?
A: 2.358

Q: And the “Ratio of intermediate value” (HIVEP3 (CR601823))?
A: 3.291

Q: And the “Ratio of intermediate value” (HSD3B2 (CR627415))?
A: 3.576

Q: What about the “Ratio of intermediate value” (HSPB1 (BM557864)) of the same compound?
A: 5.989

Q: And the “Ratio of intermediate value” (IER3 (NM_003897))?
A: 3.324

Q: What about the “Ratio of intermediate value” (IFI16 (AF208043)) of the same compound?
A: 2.147

Q: And the “Ratio of intermediate value” (IGFBP1 (NM_000596))?
A: 4.426

Q: What about the “Ratio of intermediate value” (IGFBP2 (AB209509)) of the same compound?
A: 2.281

Q: And the “Ratio of intermediate value” (IGFBP3 (NM_001013398))?
A: 11.51

Q: What about the “Ratio of intermediate value” (IGFBP4 (NM_001552)) of the same compound?
A: 2.17

Q: And the “Ratio of intermediate value” (IGFBP7 (NM_001553))?
A: 3.467

Q: And the “Ratio of intermediate value” (IHPK3 (BC089389))?
A: 17.87

Q: And the “Ratio of intermediate value” (ISYNA1 (AK093461))?
A: 8.506

Q: What about the “Ratio of intermediate value” (JAG1 (AF003837)) of the same compound?
A: 2.053

Q: And the “Ratio of intermediate value” (KIAA1434 (AL833069))?
A: 2.042

Q: And the “Ratio of intermediate value” (KIAA1466 (AB040899))?
A: 2.151

Q: And the “Ratio of intermediate value” (KIAA1949 (AK126182))?
A: 2.807

Q: What about the “Ratio of intermediate value” (KIF3B (NM_004798)) of the same compound?
A: 3.215
